Measurements: patent US7241721B2, “Biphenyl derivatives and their use as fungicides” (Syngenta Crop Protection, Inc., priority 2002, dated 2007)
Some of these results come from one statement about several compounds together. Some compounds share one range, which may span the group rather than tell each member.

Columns and labels:
Format in all cases: in vivo
[1] = tested on: Venturia inaegualis; experiment: Action against Venturia inaegualis/apple (scab on apple); conditions: apple seedlings cv. McIntosh, 0.02% active ingredient sprayed 1 day before inoculation, assessed after 4+4+4 days incubation
[2] = tested on: Alternaria solani; experiment: Action against Alternaria solani/tomato (early blight on tomatoes); conditions: tomato cv. Roter Gnom, 0.02% active ingredient sprayed 2 days before inoculation, assessed after 3 days incubation
[3] = tested on: Podosphaera leucotricha; experiment: Action against Podosphaera leucotricha/apple (powdery mildew on apple); conditions: apple seedlings cv. McIntosh, 0.02% active ingredient sprayed 1 day before inoculation, assessed after 12 days incubation
[4] = tested on: Septoria tritici; experiment: Action against Septoria tritici/wheat (Septoria leaf spot on wheat); conditions: wheat cv. Riband, 0.2% active ingredient sprayed 1 day before inoculation, assessed 18 days after inoculation
[5] = tested on: Uncinula necator; experiment: Action against Uncinula necator/grape (powdery mildew on grapes); conditions: grape seedlings cv. Gutedel, 0.02% active ingredient sprayed 1 day before inoculation, assessed after 7 days incubation
[6] = tested on: Botrytis cinerea; experiment: Action against Botrytis cinerea/grape (Botrytis on grapes); conditions: grape seedlings cv. Gutedel, 0.02% active ingredient sprayed 2 days before inoculation, assessed after 4 days incubation
[7] = tested on: Helminthosporium teres; experiment: Action against Helminthosporium teres/barley (net blotch on barley); conditions: barley cv. Regina, 0.02% active ingredient sprayed 2 days before inoculation, assessed after 4 days incubation
[8] = tested on: Septoria Nodorum; experiment: Action against Septoria Nodorum/wheat (Septoria leaf spot on wheat); conditions: wheat cv. Arina, 0.02% active ingredient sprayed 1 day before inoculation, assessed 11 days after inoculation
[9] = tested on: Erysiphe graminis; experiment: Action against Erysiphe graminis/barley (powdery mildew on barley); conditions: barley cv. Regina, 0.02% active ingredient sprayed 1 day before inoculation, assessed after 6 days incubation
[10] = tested on: Botrytis cinerea; experiment: Action against Botrytis cinerea/tomato (Botrytis on tomatoes); conditions: tomato cv. Roter Gnom, 0.02% active ingredient sprayed 2 days before inoculation, assessed after 4 days incubation
[11] = tested on: Puccinia recondita; experiment: Action against Puccinia recondita/wheat (brownrust on wheat); conditions: wheat cv. Arina, 0.02% active ingredient sprayed 1 day before inoculation, assessed 10 days after inoculation

Row | Structure (SMILES) | infestation (disease incidence) [1] | infestation (disease incidence) [2] | infestation (disease incidence) [3] | disease incidence [4] [% disease incidence] | infestation (disease incidence) [5] | infestation (disease incidence) [6] | infestation (disease incidence) [7] | infestation (disease incidence) [8] | infestation (disease incidence) [9] | infestation (disease incidence) [10] | infestation (disease incidence) [11]
1 | C#Cc1ccc(-c2ccccc2NC(=O)c2cn(C)nc2C(F)F)cc1 [Compound 1.03] | 0-5 % infestation | 0-5 % infestation | 0-5 % infestation | < 20 | 0-5 % infestation | 0-5 % infestation | 0-5 % infestation | 0-5 % infestation | 0-5 % infestation | 0-5 % infestation | 0-5 % infestation
2 | Cn1cc(C(=O)Nc2ccccc2-c2ccc(C#C[Si](C)(C)C)cc2)c(C(F)F)n1 [Compound 1.10] | 0-5 % infestation | 0-5 % infestation | 0-5 % infestation | < 20 | 0-5 % infestation | 0-5 % infestation | 0-5 % infestation | 0-5 % infestation | 0-5 % infestation | 0-5 % infestation | 0-5 % infestation
